Data taken from PubChem BioAssay AID1347076 (National Center for Advancing Translational Sciences (NCATS), 2019).
Screen size: about 400,000 compounds; about 13,000 (3.2%) were called active. Inconclusive results, whose numbers are uncertain, are shown with a selection of clear calls. Calls come from the whole dose curve; as a rule, active = well fitted cell-killing curve with a large enough effect; inconclusive = small, poorly fitted or top-dose-only effect, or effect the other way; inactive = flat fitted curve, though single readings scatter. Potencies of inconclusive entries are doubtful fits and often do not repeat.

Test: qHTS assay for MDR1-selective chemotherapeutics: Primary screen using the drug-selected MDR subline cells KB-V1; note: nearly all actives have a fitted effect of over 60% in size
Details: KB-V1 MDR cells viability, CellTiter-Glo, 72 h; activity change, negative = cytotoxicity: at 46.1 µM (top of the series)
Method in brief: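 Cells of the MDR subline KB-V1 are plated, dosed with compound at multiple concentrations, and incubated 72 h at 37 degrees C; CellTiter-Glo is then added and luminescence read after 10 min.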
% is set by controls: 0 for no effect and ±100 for the full control effect; potency is the fitted concentration of half-maximal effect.

Compound	Potency	activity change, negative = cytotoxicity
CC[C@]12c3[nH]c4ccccc4c3CCN1C(=O)C(CC(=O)NCc1cccc(C(F)(F)F)c1)C[C@@H]2C(=O)N1CCN(C(=O)C2CC2)CC1 (some centres undefined)	inactive	–
CC(CNC(=O)c1cnn(-c2ccc(F)cc2)c1-n1cccc1)c1ccccc1 (centres undefined)	active: 20.6 µM	–
CC1(OC(=O)CCc2ccccc2)C(=O)C=C2C=C(c3ccc(C#N)cc3)N(C(CO)CO)C=C2C1=O (centres undefined)	inconclusive: 18.4 µM [rising, partial curve]	–
O=C(Nc1ccc(Cl)cn1)c1cccc(S(=O)(=O)N2CCCC2)c1	active: 16.4 µM	–
Cc1ccc2nc(SCc3nc(-c4ccc(Cl)cc4)no3)[nH]c2c1	inactive	–
COCCN(C(=O)c1ccco1)c1nnc(-c2ccc(F)cc2)s1	inactive	–
CC(=O)Nc1ccccc1-c1nc2ccccc2n(CC(=O)Nc2cccc(C)c2C)c1=O	inactive	–
O=C(CN1CCC(n2nnc3cc(C(F)(F)F)ccc32)CC1)N1CCc2ccccc21	inconclusive: 1.16 µM [cytotoxic, full curve]	–
COCCCn1c(=N)c(C(=O)NCC2CCCO2)cc2c(=O)n3cccc(C)c3nc21 (centres undefined)	–	inconclusive: -24.3%
Cc1cc(C)cc(N2C(=O)CSC23C(=O)N(Cc2c(F)cccc2Cl)c2ccccc23)c1 (centres undefined)	inconclusive: 29.1 µM [cytotoxic, single point]	–
CN(C)CCNC(=O)c1onc(CSc2nc3ccccc3[nH]2)c1C(=O)NCCN(C)C	inconclusive: 14.6 µM [rising, partial curve, poor fit]	–
O=C(Nc1cccc(F)c1)NC1CCCc2ccccc21 (centres undefined)	inconclusive: 18.4 µM [cytotoxic, single point]	–
CCN1CCCC1CNC(=O)c1cc([N+](=O)[O-])c(N(C)C)cc1OC (centres undefined)	inactive	–
O=C(/C=C/c1cccnc1)c1ccc(O)cc1	inconclusive: 18.4 µM [cytotoxic, single point]	–
CCc1ccc(CN(C)CC(=O)Nc2sccc2C#N)cc1	inconclusive: 14.6 µM [cytotoxic, single point]	–
Cc1cc2c(cc1S(=O)(=O)Nc1cccc(Cl)c1C)n(C)c(=O)c(=O)n2C	inconclusive: 25.9 µM [rising, single point]	–
Cc1sc2ncnc(SCC(=O)c3ccc4c(c3)OCCO4)c2c1-c1ccccc1	active: 16.4 µM	–
Fc1ccccc1CN1CCCN(C(=S)Nc2cccc(Cl)c2)C1	inconclusive: 5.8 µM [cytotoxic, full curve]	–
Cc1ccc(NS(=O)(=O)c2ccc(NC(=O)CN(c3cc([N+](=O)[O-])ccc3C)S(C)(=O)=O)cc2)c(C)c1	inconclusive: 29.1 µM [cytotoxic, single point]	–
S=C(NCc1ccccc1)NC1CCCc2ccccc21 (centres undefined)	inconclusive: 20.6 µM [cytotoxic, single point]	–
Cc1cc(C=CC#N)cc(C)c1Nc1nc(Nc2ccc3c(c2)OCO3)c2[nH]cnc2n1	inconclusive: 18.4 µM [cytotoxic, single point]	–
COC(=O)C[C@H]1CC[C@@H](NC(=O)C2CC2)[C@@H](CO)O1	inactive	–
C/C(=N\N=c1/scc(C)n1Cc1ccco1)c1cccc([N+](=O)[O-])c1	inconclusive: 16.4 µM [cytotoxic, single point]	–

Compound	Potency	activity change, negative = cytotoxicity
CC1(C(=O)NCc2ccccc2)CN(S(C)(=O)=O)CC(=O)N1C1CC1 (centres undefined)	inactive	–
CCOc1ccc(C(=O)CCC(=O)Nc2ccncc2)cc1	inconclusive: 25.9 µM [cytotoxic, partial curve, poor fit]	–
Cc1cc(C)c2nc(N3C(=O)C(O)=C(C(=O)c4ccco4)C3c3ccco3)sc2c1 (centres undefined)	inactive	–
Cc1cccc2nc(-c3ccccn3)c(Nc3ccc(F)cc3)n12	inconclusive: 1.3 µM [cytotoxic, full curve, poor fit]	–
CC(=O)N1c2ccc(S(=O)(=O)NCCC(=O)Nc3ccc(C)c(Cl)c3)cc2CC1C (centres undefined)	inactive	–
O=C(N/N=C/c1cccnc1)c1ccc(F)cc1	inconclusive: 25.9 µM [rising, single point]	–
COc1cccc(C(=O)N2CCN(S(=O)(=O)Cc3ccccc3)CC2)c1	inconclusive: 23.1 µM [cytotoxic, single point]	–
Cc1c(C(=O)NCC2COc3ccccc3O2)oc2ccc(S(=O)(=O)N3CCOCC3)cc12 (centres undefined)	active: 2.31 µM	–
Cc1cc(NC(=O)c2cc(-c3ccc(C)s3)nc3ccccc23)no1	inactive	–
COc1ccccc1/C=N/Nc1cc(C)nc(N2CCOCC2)n1	inactive	–
Cc1ccc(S(=O)(=O)N(Cc2cc3ccccc3[nH]c2=O)c2cccc(C)c2)cc1	inconclusive: 2.91 µM [cytotoxic, full curve]	–
CCOC(=O)CC(NC(=O)c1cc2ccccc2oc1=O)c1cccc([N+](=O)[O-])c1 (centres undefined)	inactive	–
CS(=O)(=O)Nc1ccccc1C(=O)NCc1ccccc1Cl	inconclusive: 3.66 µM [rising, partial curve, poor fit]	–
Cc1ccc(C)c(CSC2=NCCN2S(=O)(=O)c2ccccc2)c1	inconclusive: 13 µM [cytotoxic, partial curve]	–
Clc1cc(Br)ccc1OCCCn1ccnc1	active: 20.6 µM	–
Cc1ccc(S(=O)(=O)Nc2ccc3c(c2)OCCO3)c(C)c1NS(C)(=O)=O	inconclusive: 29.1 µM [rising, single point]	–
COc1ccc(NC(=O)c2cc3cc(C)ccc3[nH]2)cc1	inactive	–
CCOC(=O)c1c(NC(=O)C(=O)N/N=C(\C)c2ccc(OC)cc2)sc2c1CCCCC2	active: 3.26 µM	–
CC1=C(C#N)C(=O)NC(=O)/C1=C/c1ccc(-c2ccc(S(N)(=O)=O)cc2)o1	inconclusive: 14.6 µM [rising, partial curve]	–
Cc1c(-c2ccco2)[n+](=O)c2c(n1[O-])CCC2	inconclusive: 5.8 µM [rising, full curve, poor fit]	–
CCN1CCN(C(=O)C2c3cc(OC)c(OC)cc3C(=O)N3CCc4ccccc4C23)CC1 (centres undefined)	inactive	–
CC(=O)NC(CCCN1C(=O)c2ccccc2C1=O)c1nnn(C)n1 (centres undefined)	inconclusive: 29.1 µM [rising, single point]	–
CCOc1ccc(-c2[nH]ncc2-c2ccc(Cl)cc2)c(O)c1	inactive	–

Compound	Potency	activity change, negative = cytotoxicity
O=C(NCCc1ccccc1)c1ccc(Cl)c([N+](=O)[O-])c1	inactive	–
C=CCC(=O)NC1CC(C)(C)Cc2c1cnn2-c1ccccc1C (centres undefined)	inconclusive: 29.1 µM [cytotoxic, partial curve, poor fit]	–
Cc1ccc(CNC(=O)C2CCC(CNc3c(N4CCOCC4)c(=O)c3=O)CC2)cc1 (centres undefined)	inconclusive: 16.4 µM [rising, single point]	–
Cc1cccc(OCC(=O)Nc2ccc3c(C)cc(=O)oc3c2)c1	inconclusive: 8.2 µM [cytotoxic, partial curve, poor fit]	–
O=C1c2ccccc2C(=O)N1c1ccc(S(=O)(=O)N2CCN(c3ccccc3)CC2)cc1	inconclusive: 11.6 µM [rising, partial curve, poor fit]	–
Cc1[nH]nc(Sc2ccccn2)c1[N+](=O)[O-]	inconclusive: 13 µM [rising, partial curve]	–
CCN(CC)CCCNc1nc(-c2ccccc2)nc2ccccc12	inactive	–
Cc1c(C(=O)N2CCCCCC2)c(S(=O)(=O)NCc2ccccc2)c(C)n1C	inactive	–
CCC(=O)Nc1ccc(C(=O)NNC(=O)C2CCCCC2)cc1	inconclusive: 16.4 µM [rising, single point]	–
COc1ccc(N(CC(=O)Nc2ccc(C)cn2)S(=O)(=O)c2c(C)noc2C)cc1	inconclusive: 12.6 µM [cytotoxic, partial curve, poor fit]	–
NCCc1c(-c2ccccc2)n(-c2ccccc2)c2ccccc12	inconclusive: 20.6 µM [cytotoxic, single point]	–
CSc1cccc(NC(=O)CSc2ncccc2C(=O)Oc2cccc([N+](=O)[O-])c2)c1	inconclusive: 29.1 µM [rising, single point]	–
CCOc1ccccc1NC(=O)Cn1c(=O)sc2ccccc21	inconclusive: 16.4 µM [cytotoxic, partial curve]	–
COc1ccc(C(C(=O)NC2CCCC2)N(C(=O)c2ccoc2C)c2ccc(C)cc2)cc1 (centres undefined)	inactive	–
Cc1nnc2c3ccccc3c(-c3ccc(O)cc3)nn12	inconclusive: 2.91 µM [cytotoxic, full curve]	–
COc1cccc(NC(=O)c2cc(S(=O)(=O)N3CCc4ccccc43)cn2C)c1	inconclusive: 5.8 µM [rising, partial curve, poor fit]	–
CCCN(CC(=O)NC(=O)NCc1ccccc1)CC(=O)Nc1ccc(F)c(F)c1F	inconclusive: 20.6 µM [cytotoxic, single point]	–
COc1ccc(/C(N)=N/OC(=O)C2CCC(=O)N2S(=O)(=O)c2ccc(C)cc2)cc1 (centres undefined)	inconclusive: 9.2 µM [rising, partial curve, poor fit]	–
CC[n+]1c(/C=C2\Sc3ccccc3N2C)ccc2cccc(C)c21	active: 16.4 µM	–
COc1cccc(CNC(=O)CC2C(=O)NCCN2CCCc2ccccc2)c1 (centres undefined)	inactive	–
O=C(O)CCc1ccc(-c2cccs2)n1NC(=O)c1ccc(Cl)cc1Cl	inconclusive: 29.1 µM [cytotoxic, single point]	–
Cc1onc(-c2ccccc2)c1-c1ccnn1S(=O)(=O)c1ccc(Cl)cc1	inconclusive: 20.6 µM [cytotoxic, partial curve]	–
N#CC(c1ccccc1)c1ccc(C(=O)c2ccc(F)cc2)cc1 (centres undefined)	inconclusive: 13 µM [cytotoxic, partial curve]	–
